These are yes or no findings as the source states them, for the method shown. Binding seen in cells or lysates may run through a third protein. For part of these data: Binding calls can cover weak binding; strength is not graded here. Where a sequence is shown, tags or fusion partners need not be part of it.
Experiments:
Assay in all cases: split reporter; Venus YFP protein-fragment complementation assay (PCA): MKK-V1 and TRIB-V2 constructs (full length or truncated) co-transfected into HeLa cells, fluorescent complexes seen by fluorescence microscopy
[1] = target: T1, MKK6-V1 (full length MKK6 fused to the V1 fragment of Venus YFP) (UniProt P52564)
T1 sequence: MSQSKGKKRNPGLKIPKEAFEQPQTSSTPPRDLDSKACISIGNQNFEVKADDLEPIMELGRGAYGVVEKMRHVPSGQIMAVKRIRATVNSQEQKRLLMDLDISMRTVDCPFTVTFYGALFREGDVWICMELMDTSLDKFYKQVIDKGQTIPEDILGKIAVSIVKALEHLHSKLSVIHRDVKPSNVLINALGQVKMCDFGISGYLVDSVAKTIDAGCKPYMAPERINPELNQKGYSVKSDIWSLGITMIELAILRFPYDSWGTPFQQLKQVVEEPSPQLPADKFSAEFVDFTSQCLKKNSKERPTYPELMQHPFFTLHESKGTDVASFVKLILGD

[2] = target: T2, MKK4-V1 (full length MKK4 fused to the V1 fragment of Venus YFP) (UniProt P45985)
T2 sequence: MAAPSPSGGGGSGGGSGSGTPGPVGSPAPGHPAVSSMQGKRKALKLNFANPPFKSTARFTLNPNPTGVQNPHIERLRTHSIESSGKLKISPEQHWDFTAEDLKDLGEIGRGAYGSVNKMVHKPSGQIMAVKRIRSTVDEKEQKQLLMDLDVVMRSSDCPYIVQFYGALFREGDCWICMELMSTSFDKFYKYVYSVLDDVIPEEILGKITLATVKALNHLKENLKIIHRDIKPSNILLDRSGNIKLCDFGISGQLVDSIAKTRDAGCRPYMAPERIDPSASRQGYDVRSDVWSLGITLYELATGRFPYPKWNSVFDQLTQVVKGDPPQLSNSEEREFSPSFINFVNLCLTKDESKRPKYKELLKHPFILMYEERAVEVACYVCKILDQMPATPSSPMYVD

[3] = target: MKK7 with the N-terminal domain deleted (MAPKKΔN mutant), PCA construct
[4] = target: MKK6 with the C-terminal domain deleted, PCA construct
[5] = target: MKK7 with the C-terminal domain deleted, PCA construct
[6] = target: MKK6 with the N-terminal domain deleted (MAPKKΔN mutant), PCA construct

## TRIB1ΔN (TRIB1 with the N-terminal domain deleted), PCA construct (domain or fragment)
[1]
  binding: binds

## TRIB2 with the N-terminus deleted, PCA construct (domain or fragment)
[1]
  binding: binds

## TRIB3ΔN (TRIB3 with the N-terminal domain deleted), PCA construct (domain or fragment)
[1]
  binding: binds

## TRIB3 with the C-terminal domain deleted, PCA construct (domain or fragment)
[1]
  binding: binds

## TRIB2 with the C-terminus deleted, PCA construct (domain or fragment)
[1]
  binding: binds
[2]
  binding: binds

## TRIB1 with the C-terminal domain deleted, PCA construct (domain or fragment)
[1]
  binding: binds

B1: TRIB1-V2 (full length tribbles-1 fused to the V2 fragment of Venus YFP) (protein, UniProt Q96RU8 1-372)
chain: MRVGPVRSAMSGASQPRGPALLFPATRGVPAKRLLDADDAAAVAAKCPRLSECSSPPDYLSPPGSPCSPQPPPAAPGAGGGSGSAPGPSRIADYLLLPLAEREHVSRALCIHTGRELRCKVFPIKHYQDKIRPYIQLPSHSNITGIVEVILGETKAYVFFEKDFGDMHSYVRSRKRLREEEAARLFKQIVSAVAHCHQSAIVLGDLKLRKFVFSTEERTQLRLESLEDTHIMKGEDDALSDKHGCPAYVSPEILNTTGTYSGKAADVWSLGVMLYTLLVGRYPFHDSDPSALFSKIRRGQFCIPEHISPKARCLIRSLLRREPSERLTAPEILLHPWFESVLEPGYIDSEIGTSDQIVPEYQEDSDISSFFC
[3]
  binding: no binding
[4]
  binding: binds
[5]
  binding: no binding
[6]
  binding: no binding

B2: TRIB2-V2 (full length tribbles-2 fused to the V2 fragment of Venus YFP) (protein, UniProt Q92519 1-343)
chain: MNIHRSTPITIARYGRSRNKTQDFEELSSIRSAEPSQSFSPNLGSPSPPETPNLSHCVSCIGKYLLLEPLEGDHVFRAVHLHSGEELVCKVFDISCYQESLAPCFCLSAHSNINQITEIILGETKAYVFFERSYGDMHSFVRTCKKLREEEAARLFYQIASAVAHCHDGGLVLRDLKLRKFIFKDEERTRVKLESLEDAYILRGDDDSLSDKHGCPAYVSPEILNTSGSYSGKAADVWSLGVMLYTMLVGRYPFHDIEPSSLFSKIRRGQFNIPETLSPKAKCLIRSILRREPSERLTSQEILDHPWFSTDFSVSNSAYGAKEVSDQLVPDVNMEENLDPFFN
[3]
  binding: no binding
[4]
  binding: binds
[5]
  binding: no binding
[6]
  binding: no binding
